For at least one entry, the source does not settle the construct or the ends of the probe. For some of these results: No signal at the amounts used counts as a negative. For some of these results: The comparison behind a weaker result is the experiment's own reference, which may not be listed here. For some of these results: Where cells or extracts were used, other partners may take part.
How the values were obtained:
p53 wild type [1] = molecular target: p53 wild type (UniProt P04637); test: competition with a labelled probe; conditions: KD N.A., purified recombinant protein
p53 wild type [2] = molecular target: p53 wild type (UniProt P04637); test: binding assay; conditions: purified recombinant protein; for Kd: KD listed in table, measurement method and source not stated
[3] = molecular target: bovine serum albumin (Bos taurus) (UniProt P02769); test: binding assay; conditions: purified native protein, label: gold nanoparticle
[4] = molecular target: human serum albumin (Homo sapiens) (UniProt P02768); test: binding assay; conditions: DLS, negligible binding; purified native protein; label: gold nanoparticle
[5] = molecular target: p53 wild type (H1299 EI cell lysate, PonA induced) (UniProt P04637); test: binding assay; conditions: DLS in cell lysate; p53-null EI lysate gives negligible shift; larger with ActD, Dox, etoposide; protein in a lysate after overexpression; label: gold nanoparticle
[6] = molecular target: estrogen receptor alpha (ERα) (UniProt P03372); test: binding assay; conditions: DLS complex peak similar to ERβ; purified recombinant protein; label: gold nanoparticle
[7] = molecular target: estrogen receptor beta (ERβ) (UniProt Q92731); test: binding assay; conditions: DLS complex peak at 200-300 nm, 10 nM ERβ, within 5 min; also with trimer probes; purified recombinant protein; label: gold nanoparticle

Chains of the proteins cited; added tags and fusions are not shown.
UniProt Q92731, whole entry: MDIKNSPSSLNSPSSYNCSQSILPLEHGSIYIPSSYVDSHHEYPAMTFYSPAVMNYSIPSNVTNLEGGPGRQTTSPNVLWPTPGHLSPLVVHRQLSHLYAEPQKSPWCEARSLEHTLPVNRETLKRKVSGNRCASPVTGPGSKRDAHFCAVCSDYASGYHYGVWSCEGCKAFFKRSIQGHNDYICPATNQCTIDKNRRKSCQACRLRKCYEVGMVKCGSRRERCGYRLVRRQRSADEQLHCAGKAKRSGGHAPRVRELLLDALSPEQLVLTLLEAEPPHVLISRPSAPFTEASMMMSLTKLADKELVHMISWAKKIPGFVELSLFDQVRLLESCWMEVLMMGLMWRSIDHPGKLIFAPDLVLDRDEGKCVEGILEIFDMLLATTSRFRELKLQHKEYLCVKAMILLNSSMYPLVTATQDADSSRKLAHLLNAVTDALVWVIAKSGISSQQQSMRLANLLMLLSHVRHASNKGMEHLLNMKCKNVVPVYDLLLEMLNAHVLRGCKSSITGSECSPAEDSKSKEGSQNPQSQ

Does “ACCTGGGGAATTTCCGGGAATTTCCGCTGA (double strand) [ConAmut4]” bind (p53 wild type [1]; excess free DNA vs PUMA-AuNP, DLS, order ConA>GADD45>Bax>ConAmut4>WRNC>Scrambled, variant of ConA)?
Result: binds more weakly

Does “ATCATGAAAGGTGGATTTAGGTGGAAGCTC (double strand) [WRNC]” bind (p53 wild type [1]; negative control, rank 5 of 6, DLS competition)?
Result: binds more weakly

“ATCATGAACATGTCTAAGCATGCTGAGCTC (double strand) [GADD45]” was tested. Which Kd (p53 wild type [2]) did it give?
The Kd was 7.7 nM.

Does “GGACAAGTCAGGACTTGCAG [PUMA response element (PUMA-AuNP dumbbell linker)]” bind ([3]; DLS, negligible binding)?
Result: no binding

Does “GGACAAGTCAGGACTTGCAG [PUMA response element (PUMA-AuNP dumbbell linker)]” bind [4]?
Result: no binding

Does “GGACAAGTCAGGACTTGCAG [PUMA response element (PUMA-AuNP dumbbell linker)]” bind [5]?
Result: binds

Does “GGACAAGTCAGGACTTGCAG [PUMA response element (PUMA-AuNP dumbbell linker)]” bind (p53 wild type [2]; DLS size shift, linear 0-12 pM p53, plateau about 15 min, about 120 nm size increase at about 6 pM, label: gold nanoparticle)?
Result: binds

Does “GGTCACTGTGACC [ERE dumbbell probe (seq A/seq B/100-mer linker)]” bind ([3]; DLS size unchanged, no complex peak)?
Result: no binding

Does “GGTCACTGTGACC [ERE dumbbell probe (seq A/seq B/100-mer linker)]” bind [6]?
Result: binds

Does “GGTCACTGTGACC [ERE dumbbell probe (seq A/seq B/100-mer linker)]” bind [7]?
Result: binds

Does “GTTAGAGATGCGAGAGTTCAGTAAGCGGGGCAGA (double strand) [Scrambled]” bind (p53 wild type [1]; negative control, lowest rank of 6, DLS competition, variant of ConA)?
Result: no binding

“GTTAGAGGGGCATGTCCGGGCATGTCCGGGCAGA (double strand) [ConA]” was tested. Which Kd (p53 wild type [2]) did it give?
The Kd was 3 nM.

“TCATTCACAAGTTAGAGACAAGCCTAGCTC (double strand) [Bax a]” was tested. Which Kd (p53 wild type [2]) did it give?
The Kd was 73 nM.

Source: US20180172678
